These are yes or no findings as the source states them, for the method shown. Some entries that bind do so weakly or less than the wild type. Tags and fused reporters may be left off the sequences shown.
How the values were obtained:
[1] = target: 6×His-HaloTag[22-297](Q145H+P154R); test: fully purified system, fold response over reaction without peptide, JF646
[2] = target: 6×His-HaloTag[22-297](M2F); test: fully purified system, 80 nM large fragment, peptide titration, JF646
[3] = target: 6×His-HaloTag[22-297](Q145H+P154R); test: as above

Measured: binding

RREIGTGFPFDPHYVEVLG [synthetic HaloTag[3-19] peptide with two additional N-terminal arginine residues]
binds: all assays above

EIGTGFPFDPHYVEVLG [synthetic HaloTag[3-19] peptide]
binds: all assays above

From patent US20240174992A1, “SPLIT MODIFIED DEHALOGENASE VARIANTS” (Promega Corporation, priority 2022, published 2024)
